Experimental data published in PubChem BioAssay AID1508600 (Functional Genomics Laboratory (NCATS/FGL), 2020).
Screen size: about 53,000 sequences; about 3,700 (7%) were called active.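 How the source made its calls: active means gene knockdowns whose robust z-score for IL-1 alpha signal is at least 2 or at most -2, so actives lie on both sides; inactive means the rest.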 Some of the results follow.

assay: Components of the Cytosolic LPS Sensing Pathway: Gene Identification via Genome-wide siRNA Screen; conditions: RAW264.7 macrophages, IL-1a HTRF, actives lie on both sides, screened at 100 nM (by protocol), cells primed 5 h with Pam3CSK4 first;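 further: robust z of the log signal after scaling to non-targeting control siRNA wells of the plate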
Procedure, shortened: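 RAW264.7 mouse macrophages reverse-transfected with single siRNAs (100 nM final) for 48h, primed with Pam3CSK4 for 5 hours, then transfected with LipidA for 24 hour. Supernatant IL-1a read by HTRF; values normalized to negative-control median, log-transformed robust z-scores.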

z-score, inactive:
GGGCCUAGUAACUAUCAAGTT against Zfp641 1.4, GCAUCAAACACUAGGGCAATT against Gpr33 0.699, CCGUCGUUUUGGCCAGUAATT against Tex101 0.422, GGUAGAAGAUGAUUACAUCTT against Spock2 0.408, GCAUACCGGUGUGUCAGUGTT against Lamp1 -0.0328, GGAAGAGAAAGUAAAGAAGTT against Ptpn6 0.0296, GGAGAAGAAGCUGGACCAGTT against Atp5o 0.348, GGCAAGAAAGUCAUUAGCUTT against Mocs2 -0.305, CCGAUGUCUGAUAGUACAUTT against C3ar1 1.61, GGAUCAUAAAAAGAAUCACTT against Gpr21 0.851, GGGAAUAAAAAGGAUCACUTT against Rab39 1.27, GGUGUGUUUUUGCUUCUCUTT against Tmem9b -0.678, CCUGGUUAUCCAUUAGUGGTT against Tatdn2 -0.874, CCCAGCAACUACUGGAAACTT against Tas2r139 -0.293, GGUAUUUGGAGUACCCUUUTT against Arhgap11a 0.196, GGGUUGAAAAGAGGUGUCUTT against Cacng8 -1.82, CCAGGUGAGGUUGCUUAACTT against Bri3bp -1.11, GGACCGCUACUAUUCAGGATT against Myh10 0.93, GGAUUCCCGUACAACCAACTT against Sppl2c -1.2, GCGUGGCCGUCAAAGAGUATT against Basp1 1.38, CCUAGCUGAGGUGAACAACTT against Spr 0.507, GGAUUUUACAGUUUUUGGATT against Pccb 1.01, CCAUAUGCAAGGAAUCUGCTT against Adam26a -1.03, CCUUAAACUAGAAUUGUGUTT against Grap2 -0.197, GAUUUUCUUUGUUCAUCUCTT against Olfr727 -0.535, GGUAUAAACUCUAAAUGCUTT against Tpk1 -0.0384, GCGCAAGAUUCUCCAGCUUTT against Qars -1.38, GCUUCAACUCUUUUCAGAGTT against F830208F22Rik 0.884, GGAUCAGGACAAUGAACUGTT against Ap1s2 0.294, GGAUCCUAGAGUUUGAGAATT against Ift22 0.222, CCCUCCAAGAUAGAAGCGGTT against Efcab11 -0.185, GGCCCUGACAGAGGAAAAATT against Impa2 -1.16, CCAGAGUAAGAGUAAAAGCTT against Mamdc2 1.27, GCCAGAAGAAUCUAUGUUATT against Tcp11x2 0.483, GGAGGAUCAAGCAAACUUUTT against Gm9801 1.95, GGCCAACGUGGAGUUAUCATT against Hsd17b10 -0.435, GGCCCGGUAAAGUGGUAAGTT against Wdr20 -1.27, GGACAUGUUGGAGAAGCAATT against B3galt6 -1.56, CCAGAAAAAAGAUUGUACATT against Hesx1 -0.43, GCUAUGACACGAGAAGGCATT against Tpsab1 0.511, UUUACUAGACCUGAUGGCUTT against Olfr815 0.732, GCAACAAUUGCUAGCGUGGTT against Sec23ip 0.614, GGAGUGGGAAAACAACAAATT against Cpxm1 0.914, CCCUUAAGUCUUUUUCCUATT against Celf2 -1.09, GCGGUCUGUGGUCUUAAAUTT against She -0.449, GCUUUUGGGUUGUAAGAGATT against Ralgps2 -1.42, GCAAUCGUCAAAAAGAAUCTT against Abhd18 -0.911, GGUUUGGAGAUAUCGUGGGTT against Bmper 0.0938, GGCAUCCGUGUGUCUCUAGTT against Amdhd2 1.8, GCUUUUGAAUGUGUGGACUTT against Ugt2b37 -0.938, GGUUAUCAAGAAAAUUGGGTT against Exo1 -1.4, GUGACAGGAUAUGUUUCUATT against Cd226 -1.14, GCUCUAUACCUUACGGUCCTT against Llgl2 -0.774, GCGGGUAACCUCAUGUCUUTT against Phyhip 1.35, CGACGAAGACGUGAACAAGTT against Trappc3 -0.368, CGCACAGAGAAUAAGGGAATT against Tcta 0.843, GGUGGAAACAGAAUGGUACTT against Cntn6 -0.547, GGCUGACAAUCCCAAUCUATT against Zcchc18 0.198, GGGACAUCAAUCGUAUUUUTT against Adar -1.83, GGUCUUUCCCAGGAUUCCATT against Rab19 -0.837, GGAAACAACAACAAAUACATT against C1ql3 1.52, CCGUAUGUAACCAUCAAAGTT against Ncf1 0.281, GGCAAAAAAACACAAAGGCTT against Dock5 -1.22, GCAUAGCUCAUCAUUCGGCTT against Wfdc5 -0.925, GCACUUAAUGCAAUAUGGATT against Clock -0.579, CCUUCCAGGAUUUAUUGUGTT against Nr2f1 -0.315, GGUUCCUCCAUUGUUGAAATT against Olfr701 -1.14, GGAGACUGUCAUGGCUGUGTT against Olfr397 -1.84, GCUAAUUCCCUGAAAGAUGTT against Rnf13 0.59, GGACAGCUGGACCUAAAGGTT against Slco4a1 -0.417, GCUAGAAUACACCAUAGAGTT against Nalcn 1.18, GCUGAGCUCGGCUUUUCUATT against Mall 0.701, GGGCGACUAUGUGUGGACUTT against Mmp19 0.822, GGCUACACAGAAUAAUAAATT against Rpl14 0.839, GGAGGUAAAAAGUGCCUUATT against Olfr1040 0.202, GCAACAGGUUAGAAUAGACTT against Scd3 -1.36, GGCAAUAAGAAUCAGAAAATT against Zfp160 -0.0519, CGAACAUCUCAGCAGUGAATT against Dapk3 0.299, CCAUUGACUCCUUCAUCUUTT against Olfr988 0.244, GCAGAUUUUGACUAAAGGATT against Sbds -0.747, GGUCCUAAUUCGAAGCAGATT against Emc3 -0.589, CGGUAUCAACAUUCUGGCUTT against Cd300c -0.191, CGCAGAUGAUUAAGUUGGUTT against Olfr1000 0.961, GGAAGAGGCUGAAUCAGCUTT against Nup214 -1.87, GCCUUUCAAUCCUGAUUAATT against Rgs10 0.942, GCGCAAUGCCAAGGUGUACTT against Msantd1 1.44, GGUGUGUGGUGGUUGGUAATT against St3gal6 -0.205, GGUGUACUGAUUUUGAAGATT against Msh3 0.858, GGACAAGUUUGAUGGAUCGTT against Rcor3 1.1, CCAGGAAUCAGUCUAUACUTT against Lrrc15 1.45, GGUUAAUAUUAGCAUCGUCTT against Zdhhc23 0.908, GGCACCUCCUGUUACAUACTT against Prr36 0.25, CCAGAACGGAAGAUGAUCATT against Slc4a1 -0.242, GCCCAGUCAUUCCUACCAATT against Hoxc13 0.91, CGAGCUAACAGCAUUGCUGTT against Ajuba 0.532, CCGUCCUCAGUUAUCUCUATT against Sorcs3 -0.835, GGAAUGUGAUGAUGUGAUUTT against Ppm1m -1.06, CACUCAGCUCAAUGACCUGTT against Ifna14 0.0473, GGGACUUCUGAUUAAAUUUTT against Skint9 -1.51, GCUUUUCAAACACAGUAGATT against Dlx3 -0.708

z-score, active:
CCCAGCAGAAUAACUGCCATT against Pantr1 2.55, CCGUUGGAGUCCAACCUAUTT against Ube2a 2.2, GCCGGCUGUAUUCAGUACGTT against Hoxc9 3.06, GCGCAAUGAACGGUUCUACTT against Prepl 3.96, GGAGCUGACAGAGAGAUUCTT against Ankrd40 -2.77, GGCAUGAAGUUUGAAGCCATT against Cnnm2 -2.47, GCUCGAGGCUUAGAAGACUTT against Hspb3 2.23
